# Results taken from publication PMC9453702, “Structure-function analysis of enterovirus protease 2A in complex with its essential host factor SETD3” (Nature Communications, 2022).
# Assays:
# [1] = biological target: coxsackievirus B3 protease 2A with C-terminal His6-tag (for biolayer interferometry) (coxsackievirus B3 (Nancy strain)); test: BLI; competition: His-tagged 2A on Ni-NTA biosensors, 3-fold dilution series of actin peptide (40 nM to 10 µM) with SETD3 constant at 625 nM (620 nM in the methods); 20 mM Tris/HCl pH 8.0, 150 mM NaCl, 5% glycerol, 1 mM DTT; maximum binding against peptide concentration; both purified
# [2] = biological target: coxsackievirus B3 protease 2A with C-terminal His6-tag (for biolayer interferometry) (coxsackievirus B3 (Nancy strain)); test: BLI; competition: His-tagged 2A on Ni-NTA biosensors, 3-fold dilution series of actin peptide (40 nM to 10 µM) with SETD3 constant at 310 nM; 20 mM Tris/HCl pH 8.0, 150 mM NaCl, 5% glycerol, 1 mM DTT; maximum binding against peptide concentration; both purified
binder,measurement,setting,value
"human SETD3, wild type (recombinant, tag cleaved) (enzyme, UniProt Q86TU7 1-594) MGKKSRVKTQKSGTGATATVSPKEILNLTSELLQKCSSPAPGPGKEWEEYVQIRTLVEKIRKKQKGLSVTFDGKREDYFPDLMKWASENGASVEGFEMVNFKEEGFGLRATRDIKAEELFLWVPRKLLMTVESAKNSVLGPLYSQDRILQAMGNIALAFHLLCERASPNSFWQPYIQTLPSEYDTPLYFEEDEVRYLQSTQAIHDVFSQYKNTARQYAYFYKVIQTHPHANKLPLKDSFTYEDYRWAVSSVMTRQNQIPTEDGSRVTLALIPLWDMCNHTNGLITTGYNLEDDRCECVALQDFRAGEQIYIFYGTRSNAEFVIHSGFFFDNNSHDRVKIKLGVSKSDRLYAMKAEVLARAGIPTSSVFALHFTEPPISAQLLAFLRVFCMTEEELKEHLLGDSAIDRIFTLGNSEFPVSWDNEVKLWTFLEDRASLLLKTYKTTIEEDKSVLKNHDLSVRAKMAIKLRLGEKEILEKAVKSAAVNREYYRQQMEEKAPLPKYEESNLGLLESSVGDSRLPLVLRNLEEEAGVQDALNIREAISKAKATENGLVNGENSIPNGTRSENESLNQESKRAVEDAKGSSSDSTAGVKE",binding,[1],binds
same,binding,[2],binds

# These are yes or no findings as the source states them, for the method shown. A result given as binding can be weak or reduced; the word gives no strength. Tags and fused reporters may be left off the sequences shown.
